Results are given in words; binding and its absence hold for the method and conditions named. Binding seen in cells or lysates may run through a third protein. Binding calls can cover weak binding; strength is not graded here.

This test addresses T1, VE-cadherin (human (endogenous in HUVEC)) (UniProt P33151).
T1 sequence: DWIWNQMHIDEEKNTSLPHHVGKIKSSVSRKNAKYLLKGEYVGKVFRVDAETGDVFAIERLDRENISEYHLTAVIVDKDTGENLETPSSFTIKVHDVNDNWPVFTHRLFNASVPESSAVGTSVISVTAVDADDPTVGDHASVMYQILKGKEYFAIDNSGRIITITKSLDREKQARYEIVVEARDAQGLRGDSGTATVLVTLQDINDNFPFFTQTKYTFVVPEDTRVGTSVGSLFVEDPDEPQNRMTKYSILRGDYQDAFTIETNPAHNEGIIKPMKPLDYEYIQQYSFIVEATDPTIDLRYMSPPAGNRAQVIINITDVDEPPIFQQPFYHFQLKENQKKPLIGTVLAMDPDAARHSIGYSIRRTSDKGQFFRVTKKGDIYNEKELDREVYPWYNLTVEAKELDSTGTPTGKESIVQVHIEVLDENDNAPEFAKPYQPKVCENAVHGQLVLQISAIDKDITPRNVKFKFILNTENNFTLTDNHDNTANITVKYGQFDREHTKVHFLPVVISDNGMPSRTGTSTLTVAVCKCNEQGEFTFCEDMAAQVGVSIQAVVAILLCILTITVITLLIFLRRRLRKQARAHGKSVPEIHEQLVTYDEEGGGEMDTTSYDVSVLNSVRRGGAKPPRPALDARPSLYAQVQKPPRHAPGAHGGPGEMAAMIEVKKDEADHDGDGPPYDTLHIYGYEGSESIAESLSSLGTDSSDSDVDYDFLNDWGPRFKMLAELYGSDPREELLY
As to the kind of experiment: co-IP; VE-cadherin precipitated from HUVEC cell lysates (shScramble, shPRKD1 stable knockdown lines, or cells treated with the PRKD inhibitor CRT0066101, 5 µM); coprecipitated partners detected by Western blot.

Take Vinculin (from UniProt P18206-2): the binding result is recorded as “binds”.

The values above are taken from PMC10017463.
